These are yes or no findings as the source states them, for the method shown. In cells and extracts the contact can be indirect. Some entries that bind do so weakly or less than the wild type.
Legend:
[1] = target: Rubella virus E1 envelope glycoprotein (Rubella virus (RuV)) (UniProt P08563); test: co-IP; no cross-linker; lysates of BHK-21 cells 42 h post-electroporation with WT or E2 Y281A viral RNA; lysis buffer 1 (50 mM TRIS pH 7.4, 100 mM NaCl, 1 mM EDTA, 1% Triton X-100); precleared, mAb E1-20 on ice 1 h, Protein A agarose 90 min at 4°C; western blot with RuV pAb
[2] = target: Rubella virus E1 envelope glycoprotein (Rubella virus (RuV)) (UniProt P08563); test: cross-linking + co-IP; BHK-21 cells 42 h post-electroporation with WT or mutant viral RNA cross-linked with 1 mM DSP in PBS, 10 min, room temperature, quenched with 125 mM glycine; lysis buffer 2 (10 mM sodium phosphate pH 7.4, 50 mM NaCl, 1% Triton X-100); IP with mAb E1-20 or control mAb; cross-link reversed by DTT; western blot with RuV pAb

The chains behind the UniProt entries cited, without tags or fusion partners. Residues count along the entry.
Rubella virus E2 envelope glycoprotein, wild type (P08563, residues 301-582): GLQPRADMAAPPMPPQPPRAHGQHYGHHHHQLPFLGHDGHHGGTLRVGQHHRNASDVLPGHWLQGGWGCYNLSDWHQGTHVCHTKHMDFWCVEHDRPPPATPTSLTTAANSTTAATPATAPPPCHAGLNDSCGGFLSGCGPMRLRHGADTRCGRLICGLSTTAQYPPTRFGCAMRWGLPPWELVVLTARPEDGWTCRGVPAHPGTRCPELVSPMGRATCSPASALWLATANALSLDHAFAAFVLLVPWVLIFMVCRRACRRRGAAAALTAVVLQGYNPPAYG
Rubella virus E1 envelope glycoprotein (Rubella virus (RuV)) (P08563, residues 583-1063): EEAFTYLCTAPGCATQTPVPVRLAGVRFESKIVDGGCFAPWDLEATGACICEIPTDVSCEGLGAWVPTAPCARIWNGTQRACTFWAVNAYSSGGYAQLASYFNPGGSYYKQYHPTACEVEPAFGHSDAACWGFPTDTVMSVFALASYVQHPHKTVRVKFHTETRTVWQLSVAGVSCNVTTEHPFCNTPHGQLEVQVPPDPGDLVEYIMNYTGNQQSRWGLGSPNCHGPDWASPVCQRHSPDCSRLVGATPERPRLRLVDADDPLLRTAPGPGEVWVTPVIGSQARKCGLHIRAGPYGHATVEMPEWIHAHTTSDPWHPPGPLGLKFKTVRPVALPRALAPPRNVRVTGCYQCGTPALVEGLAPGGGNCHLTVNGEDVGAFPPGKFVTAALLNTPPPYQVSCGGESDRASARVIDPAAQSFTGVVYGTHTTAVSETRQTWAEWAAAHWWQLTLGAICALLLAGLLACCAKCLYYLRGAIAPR

Rubella virus E2 envelope glycoprotein, wild type (from UniProt P08563 301-582)
binding [1]: binds
binding [2]: binds
